Assay results from article PMC9233711, “Wiskott-Aldrich syndrome protein forms nuclear condensates and regulates alternative splicing” (Nature Communications, 2022).

Amino acid sequences for entries named in this document (tags omitted).
UniProt P42768: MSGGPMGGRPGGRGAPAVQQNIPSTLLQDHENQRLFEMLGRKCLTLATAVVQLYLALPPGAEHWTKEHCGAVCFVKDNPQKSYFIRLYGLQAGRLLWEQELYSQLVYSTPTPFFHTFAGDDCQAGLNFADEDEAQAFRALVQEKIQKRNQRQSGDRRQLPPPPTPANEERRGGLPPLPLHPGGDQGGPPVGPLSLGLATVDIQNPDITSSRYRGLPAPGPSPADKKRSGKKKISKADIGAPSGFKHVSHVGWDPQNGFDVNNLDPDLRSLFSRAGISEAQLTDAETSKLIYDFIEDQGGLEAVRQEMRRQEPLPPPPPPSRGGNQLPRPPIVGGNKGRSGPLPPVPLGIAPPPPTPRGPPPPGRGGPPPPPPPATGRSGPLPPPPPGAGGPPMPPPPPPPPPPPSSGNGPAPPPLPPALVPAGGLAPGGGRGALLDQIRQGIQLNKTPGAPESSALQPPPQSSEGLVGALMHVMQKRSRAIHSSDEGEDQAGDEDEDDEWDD
UniProt Q99459: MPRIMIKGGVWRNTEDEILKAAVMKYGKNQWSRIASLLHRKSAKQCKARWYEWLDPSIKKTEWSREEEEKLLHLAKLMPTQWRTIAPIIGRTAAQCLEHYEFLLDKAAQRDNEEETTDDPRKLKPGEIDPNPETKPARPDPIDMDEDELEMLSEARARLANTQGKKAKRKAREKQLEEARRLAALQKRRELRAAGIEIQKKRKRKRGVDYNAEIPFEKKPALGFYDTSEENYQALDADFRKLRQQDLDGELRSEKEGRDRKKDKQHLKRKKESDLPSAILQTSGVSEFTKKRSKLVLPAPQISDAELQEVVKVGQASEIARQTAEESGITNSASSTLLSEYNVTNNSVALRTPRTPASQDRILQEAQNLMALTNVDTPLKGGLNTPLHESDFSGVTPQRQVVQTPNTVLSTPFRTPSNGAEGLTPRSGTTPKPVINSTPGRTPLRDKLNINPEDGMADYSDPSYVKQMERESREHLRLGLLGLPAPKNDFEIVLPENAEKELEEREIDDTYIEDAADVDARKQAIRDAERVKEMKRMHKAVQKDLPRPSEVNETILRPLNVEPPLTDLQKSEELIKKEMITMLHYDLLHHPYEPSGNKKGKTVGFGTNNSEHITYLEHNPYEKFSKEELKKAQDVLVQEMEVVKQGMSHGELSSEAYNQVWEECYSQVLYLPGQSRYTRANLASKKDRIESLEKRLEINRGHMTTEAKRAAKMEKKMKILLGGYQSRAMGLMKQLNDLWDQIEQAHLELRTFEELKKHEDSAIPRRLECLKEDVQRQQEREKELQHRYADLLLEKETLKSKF
UniProt Q15393: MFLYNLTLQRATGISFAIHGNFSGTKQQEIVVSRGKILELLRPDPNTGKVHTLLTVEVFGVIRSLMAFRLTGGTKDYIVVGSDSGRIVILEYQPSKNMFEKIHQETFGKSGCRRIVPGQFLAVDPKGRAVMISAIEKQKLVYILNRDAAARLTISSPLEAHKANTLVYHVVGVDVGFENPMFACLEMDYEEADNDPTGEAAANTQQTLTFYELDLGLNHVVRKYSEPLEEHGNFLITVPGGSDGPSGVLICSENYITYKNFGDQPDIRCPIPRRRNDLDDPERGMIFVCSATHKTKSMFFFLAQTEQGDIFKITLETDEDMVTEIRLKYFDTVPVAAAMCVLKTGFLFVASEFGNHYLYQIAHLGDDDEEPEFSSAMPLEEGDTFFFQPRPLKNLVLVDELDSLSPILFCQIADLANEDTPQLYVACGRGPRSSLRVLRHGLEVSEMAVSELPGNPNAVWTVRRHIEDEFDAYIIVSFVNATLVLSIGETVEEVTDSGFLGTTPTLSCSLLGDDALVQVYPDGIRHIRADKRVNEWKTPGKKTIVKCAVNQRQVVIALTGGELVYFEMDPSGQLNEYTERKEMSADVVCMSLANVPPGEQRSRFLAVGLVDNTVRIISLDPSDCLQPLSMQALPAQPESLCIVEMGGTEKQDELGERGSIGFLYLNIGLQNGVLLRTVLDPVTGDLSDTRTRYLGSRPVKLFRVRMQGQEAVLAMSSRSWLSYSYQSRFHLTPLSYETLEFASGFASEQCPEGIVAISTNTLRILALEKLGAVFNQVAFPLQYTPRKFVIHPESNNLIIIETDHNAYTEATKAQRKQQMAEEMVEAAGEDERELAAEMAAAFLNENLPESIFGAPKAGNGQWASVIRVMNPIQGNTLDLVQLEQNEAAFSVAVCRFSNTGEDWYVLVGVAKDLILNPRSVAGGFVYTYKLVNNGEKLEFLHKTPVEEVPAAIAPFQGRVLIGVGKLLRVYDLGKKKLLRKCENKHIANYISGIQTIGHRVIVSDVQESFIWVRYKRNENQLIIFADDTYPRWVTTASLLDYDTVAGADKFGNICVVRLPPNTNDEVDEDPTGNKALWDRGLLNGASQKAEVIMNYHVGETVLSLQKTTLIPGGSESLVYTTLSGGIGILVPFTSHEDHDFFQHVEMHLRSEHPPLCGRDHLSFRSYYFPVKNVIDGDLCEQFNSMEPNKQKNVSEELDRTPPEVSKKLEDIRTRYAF
UniProt O60264: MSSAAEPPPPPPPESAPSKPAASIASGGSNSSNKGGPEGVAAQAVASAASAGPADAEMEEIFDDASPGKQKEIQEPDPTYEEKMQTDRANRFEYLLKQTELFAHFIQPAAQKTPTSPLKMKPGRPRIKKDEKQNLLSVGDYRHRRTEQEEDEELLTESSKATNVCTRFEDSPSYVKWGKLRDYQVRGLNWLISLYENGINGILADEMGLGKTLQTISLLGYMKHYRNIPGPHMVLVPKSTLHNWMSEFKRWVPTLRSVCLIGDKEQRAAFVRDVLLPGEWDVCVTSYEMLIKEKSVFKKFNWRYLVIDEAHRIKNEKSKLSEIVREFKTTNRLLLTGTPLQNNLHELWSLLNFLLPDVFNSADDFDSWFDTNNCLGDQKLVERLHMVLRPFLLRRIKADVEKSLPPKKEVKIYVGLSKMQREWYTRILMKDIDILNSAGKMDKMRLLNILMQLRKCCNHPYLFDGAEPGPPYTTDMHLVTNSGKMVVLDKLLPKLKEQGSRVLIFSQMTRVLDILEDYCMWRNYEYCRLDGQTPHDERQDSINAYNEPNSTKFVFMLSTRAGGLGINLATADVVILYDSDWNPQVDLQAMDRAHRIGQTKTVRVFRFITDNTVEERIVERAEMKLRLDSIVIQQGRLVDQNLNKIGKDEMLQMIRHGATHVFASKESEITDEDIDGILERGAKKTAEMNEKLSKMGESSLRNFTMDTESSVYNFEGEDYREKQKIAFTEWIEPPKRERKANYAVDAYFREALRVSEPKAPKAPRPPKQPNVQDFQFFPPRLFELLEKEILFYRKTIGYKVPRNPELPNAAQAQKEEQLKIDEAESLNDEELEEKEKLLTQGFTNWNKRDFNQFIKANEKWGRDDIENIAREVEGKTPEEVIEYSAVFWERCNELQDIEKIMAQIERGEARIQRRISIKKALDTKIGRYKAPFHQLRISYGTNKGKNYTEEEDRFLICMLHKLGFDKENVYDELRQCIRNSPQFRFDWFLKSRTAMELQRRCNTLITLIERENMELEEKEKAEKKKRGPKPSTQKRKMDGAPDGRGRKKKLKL
UniProt P08670: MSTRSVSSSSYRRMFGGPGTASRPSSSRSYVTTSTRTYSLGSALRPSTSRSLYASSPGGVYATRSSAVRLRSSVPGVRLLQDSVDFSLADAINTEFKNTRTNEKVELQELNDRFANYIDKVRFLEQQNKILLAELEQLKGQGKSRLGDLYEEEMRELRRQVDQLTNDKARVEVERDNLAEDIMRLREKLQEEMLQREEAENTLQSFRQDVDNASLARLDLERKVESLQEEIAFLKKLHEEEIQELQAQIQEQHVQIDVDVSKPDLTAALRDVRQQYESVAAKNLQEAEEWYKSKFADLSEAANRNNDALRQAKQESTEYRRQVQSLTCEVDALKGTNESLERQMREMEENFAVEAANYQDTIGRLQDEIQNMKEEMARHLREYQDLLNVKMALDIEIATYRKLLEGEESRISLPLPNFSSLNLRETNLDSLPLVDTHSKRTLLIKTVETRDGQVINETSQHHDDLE
UniProt O43516: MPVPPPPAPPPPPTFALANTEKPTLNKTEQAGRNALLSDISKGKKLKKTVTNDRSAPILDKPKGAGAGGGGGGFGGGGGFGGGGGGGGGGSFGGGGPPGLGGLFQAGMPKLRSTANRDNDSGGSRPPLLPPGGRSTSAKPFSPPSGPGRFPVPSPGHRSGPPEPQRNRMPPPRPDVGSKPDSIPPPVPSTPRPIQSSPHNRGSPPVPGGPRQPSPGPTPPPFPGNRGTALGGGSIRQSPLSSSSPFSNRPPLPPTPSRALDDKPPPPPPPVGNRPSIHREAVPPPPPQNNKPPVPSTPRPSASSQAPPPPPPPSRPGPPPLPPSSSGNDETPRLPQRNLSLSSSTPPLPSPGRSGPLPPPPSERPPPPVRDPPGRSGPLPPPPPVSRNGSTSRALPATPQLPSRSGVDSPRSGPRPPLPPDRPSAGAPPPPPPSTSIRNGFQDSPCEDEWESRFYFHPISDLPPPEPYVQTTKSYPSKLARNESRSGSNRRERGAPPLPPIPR

B1: SRSF2, endogenous (protein, UniProt Q01130 1-221)
chain: MSYGRPPPDVEGMTSLKVDNLTYRTSPDTLRRVFEKYGRVGDVYIPRDRYTKESRGFAFVRFHDKRDAEDAMDAMDGAVLDGRELRVQMARYGRPPDSHHSRRGPPPRRYGGGGYGRRSRSPRRRRRSRSRSRSRSRSRSRSRYSRSKSRSRTRSRSRSTSKSRSARRSKSKSSSVSRSRSRSRSRSRSRSPPPVSKRESKSRSRSKSPPKSPEEEGAVSS

These molecules were tested against Wiskott-Aldrich syndrome protein (WASP), endogenous (human (endogenous in B lymphoblastoid cell lines)) (UniProt P42768) (assay: affinity purification with mass spectrometry; co-IP of endogenous WASP with two monoclonal antibodies from wild-type B lymphoblastoid cell lines, whole cells and purified nuclei; MudPIT; peptides found in IgG co-IP or in WAS-null B cells filtered out).

binding, binds:
CDC5L (from UniProt Q99459 1-802)
SF3B3 (also known as SAP130), endogenous (from UniProt Q15393 1-1217)
SMARCA5 (from UniProt O60264 1-1052)
VIM (from UniProt P08670 1-466)
WIPF1 (from UniProt O43516 1-503)
B1

No constants are given. Whether binding was seen depends on the method and setting. In cells and extracts the contact can be indirect. These calls come from enrichment with a bait or labelling near it, and not all partners need be listed.
